Our source for the binding values is US20180353564A1 (FEINSTEIN INSTITUTE FOR MEDICAL RESEARCH, published 2018).

Protein sequences, listed by entry. Tags and fused reporters are not part of them. Residues count along the entry.
UniProt O00206, residues 24-631: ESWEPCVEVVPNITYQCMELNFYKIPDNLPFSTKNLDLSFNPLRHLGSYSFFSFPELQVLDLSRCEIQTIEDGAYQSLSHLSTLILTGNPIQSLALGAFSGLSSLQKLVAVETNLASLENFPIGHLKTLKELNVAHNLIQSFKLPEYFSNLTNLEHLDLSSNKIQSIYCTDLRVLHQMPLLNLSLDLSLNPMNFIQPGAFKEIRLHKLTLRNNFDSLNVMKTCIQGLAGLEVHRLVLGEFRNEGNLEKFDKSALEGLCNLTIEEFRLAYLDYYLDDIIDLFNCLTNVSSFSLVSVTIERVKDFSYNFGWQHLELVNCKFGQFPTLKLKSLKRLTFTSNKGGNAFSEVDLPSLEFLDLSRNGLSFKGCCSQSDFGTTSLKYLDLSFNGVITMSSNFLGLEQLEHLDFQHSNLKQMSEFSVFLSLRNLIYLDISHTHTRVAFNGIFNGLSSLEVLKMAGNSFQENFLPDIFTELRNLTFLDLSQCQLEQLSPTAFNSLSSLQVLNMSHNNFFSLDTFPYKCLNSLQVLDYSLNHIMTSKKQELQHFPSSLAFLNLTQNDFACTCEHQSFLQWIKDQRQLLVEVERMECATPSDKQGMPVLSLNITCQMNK

No constants are given. Whether binding was seen depends on the method and setting. Some results given as binding are weak or reduced against the parent protein; the word gives no strength.

The target of the experiment is T1, human TLR4 (human, UniProt O00206 24-631, limits assumed).
T1 construct: also called Toll-like receptor 4
Kind of experiment: SPR (BIAcore), TLR4 on the chip. Background: Surface plasmon resonance follows binding to a sensor surface in real time, without labels.

B1: human MD2 (receptor, UniProt Q9Y6Y9 17-160, looked up)
chain: EAQKQYWVCNSSDASISYTYCDKMQYPISINVNPCIELKRSKGLLHIFYIPRRDLKQLYFNLYITVNTMNLPKRKEVICRGSDDDYSFCRALKGETVNTTISFSFKGIKFSKGKYKCVVEAISGSPEEMLFCLEFVILHQPNSN
notes: also called myeloid differentiation factor 2; myeloid differentiation protein 2
B1: the binding entry is recorded as “binds”.
